Paper PMC10079970

T1: V5-FLAG-tagged wild-type β-glucocerebrosidase (GCase) (human) (UniProt P04062)
T1 sequence: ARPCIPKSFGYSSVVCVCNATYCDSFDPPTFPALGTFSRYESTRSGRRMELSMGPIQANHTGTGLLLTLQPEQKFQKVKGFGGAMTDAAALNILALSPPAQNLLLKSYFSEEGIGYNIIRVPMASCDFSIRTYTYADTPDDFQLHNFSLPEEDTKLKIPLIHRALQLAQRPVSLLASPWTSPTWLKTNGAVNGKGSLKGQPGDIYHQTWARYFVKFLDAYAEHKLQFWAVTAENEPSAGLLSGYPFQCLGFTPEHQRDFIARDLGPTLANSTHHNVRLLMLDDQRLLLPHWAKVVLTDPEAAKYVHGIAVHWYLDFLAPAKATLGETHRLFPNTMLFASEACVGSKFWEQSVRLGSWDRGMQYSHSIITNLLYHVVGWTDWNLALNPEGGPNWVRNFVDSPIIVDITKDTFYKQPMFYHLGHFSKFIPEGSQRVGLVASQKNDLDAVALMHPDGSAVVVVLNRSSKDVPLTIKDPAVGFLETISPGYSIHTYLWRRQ

T2: V5-FLAG-tagged L444P β-glucocerebrosidase (GCase) (human) (UniProt P04062)
T2 sequence: T1 sequence with L444P

T3: V5-FLAG-tagged E326K β-glucocerebrosidase (GCase) (human) (UniProt P04062)
T3 sequence: T1 sequence with E326K

B1: LIMP2 (protein, UniProt Q14108 1-478)
chain: MGRCCFYTAGTLSLLLLVTSVTLLVARVFQKAVDQSIEKKIVLRNGTEAFDSWEKPPLPVYTQFYFFNVTNPEEILRGETPRVEEVGPYTYRELRNKANIQFGDNGTTISAVSNKAYVFERDQSVGDPKIDLIRTLNIPVLTVIEWSQVHFLREIIEAMLKAYQQKLFVTHTVDELLWGYKDEILSLIHVFRPDISPYFGLFYEKNGTNDGDYVFLTGEDSYLNFTKIVEWNGKTSLDWWITDKCNMINGTDGDSFHPLITKDEVLYVFPSDFCRSVYITFSDYESVQGLPAFRYKVPAEILANTSDNAGFCIPEGNCLGSGVLNVSICKNGAPIIMSFPHFYQADERFVSAIEGMHPNQEDHETFVDINPLTGIILKAAKRFQINIYVKKLDDFVETGDIRTMVFPVMYLNESVHIDKETASRLKSMINTTLIITNIPYIIMALGVFFGLVFTWLACKGQGSMDEGTADERAPLIRT
B2: TIMMDC1 (protein, UniProt Q9NPL8 1-285)
chain: MEVPPPAPRSFLCRALCLFPRVFAAEAVTADSEVLEERQKRLPYVPEPYYPESGWDRLRELFGKDEQQRISKDLANICKTAATAGIIGWVYGGIPAFIHAKQQYIEQSQAEIYHNRFDAVQSAHRAATRGFIRYGWRWGWRTAVFVTIFNTVNTSLNVYRNKDALSHFVIAGAVTGSLFRINVGLRGLVAGGIIGALLGTPVGGLLMAFQKYSGETVQERKQKDRKALHELKLEEWKGRLQVTEHLPEKIESSLQEDEPENDAKKIEALLNLPRNPSVIDKQDKD
B3: LONP1 (enzyme, UniProt P36776 68-959)
chain: FWEASSRGGGAFSGGEDASEGGAEEGAGGAGGSAGAGEGPVITALTPMTIPDVFPHLPLIAITRNPVFPRFIKIIEVKNKKLVELLRRKVRLAQPYVGVFLKRDDSNESDVVESLDEIYHTGTFAQIHEMQDLGDKLRMIVMGHRRVHISRQLEVEPEEPEAENKHKPRRKSKRGKKEAEDELSARHPAELAMEPTPELPAEVLMVEVENVVHEDFQVTEEVKALTAEIVKTIRDIIALNPLYRESVLQMMQAGQRVVDNPIYLSDMGAALTGAESHELQDVLEETNIPKRLYKALSLLKKEFELSKLQQRLGREVEEKIKQTHRKYLLQEQLKIIKKELGLEKDDKDAIEEKFRERLKELVVPKHVMDVVDEELSKLGLLDNHSSEFNVTRNYLDWLTSIPWGKYSNENLDLARAQAVLEEDHYGMEDVKKRILEFIAVSQLRGSTQGKILCFYGPPGVGKTSIARSIARALNREYFRFSVGGMTDVAEIKGHRRTYVGAMPGKIIQCLKKTKTENPLILIDEVDKIGRGYQGDPSSALLELLDPEQNANFLDHYLDVPVDLSKVLFICTANVTDTIPEPLRDRMEMINVSGYVAQEKLAIAERYLVPQARALCGLDESKAKLSSDVLTLLIKQYCRESGVRNLQKQVEKVLRKSAYKIVSGEAESVEVTPENLQDFVGKPVFTVERMYDVTPPGVVMGLAWTAMGGSTLFVETSLRRPQDKDAKGDKDGSLEVTGQLGEVMKESARIAYTFARAFLMQHAPANDYLVTSHIHLHVPEGATPKDGPSAGCTIVTALLSLAMGRPVRQNLAMTGEVSLTGKILPVGGIKEKTIAAKRAGVTCIVLPAENKKDFYDLAAFITEGLEVHFVEHYREIFDIAFPDEQAEALAVER

Columns and labels:
Assay in all cases: affinity purification with mass spectrometry; anti-FLAG M2 agarose IP of V5-FLAG-GCase from T-Rex HEK lysate (1x TBS pH 7.4, 0.5% NP40), 2 h at 4 °C, FLAG peptide elution, TMT labelling and LC-MS; empty-vector cells as control; interactors: ≥2 unique peptides, enriched 1.5-fold over control
[1] = target: T1, V5-FLAG-tagged wild-type β-glucocerebrosidase (GCase) (human)
[2] = target: T2, V5-FLAG-tagged L444P β-glucocerebrosidase (GCase) (human)
[3] = target: T3, V5-FLAG-tagged E326K β-glucocerebrosidase (GCase) (human)

| Binder | binding [1] | binding [2] | binding [3] |
| --- | --- | --- | --- |
| B1 | binds | – | – |
| B2 | binds | binds | binds |
| B3 | binds | binds | binds |

Where a chain is given by its changes, count along the chain named. No constants are given. Whether binding was seen depends on the method and setting. In cells and extracts the contact can be indirect. Here binding means that the protein was enriched with, or labelled near, the bait; the list need not be complete. Tags and fused reporters may be left off the sequences shown.
